Measured values taken from PubChem BioAssay AID2685 (National Center for Advancing Translational Sciences (NCATS), 2010).
The list shows a part of the results. Shown are side measurements of this screen, not its main read-out; they come without a call. Most of these compounds were active or inconclusive in the main read-out, so they are no random draw. Potencies come from curve fits of mixed quality, noted in brackets.

Test: qHTS Assay for Lipid Storage Modulators in Drosophila S3 Cells;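 as to cell number change: cells counted by Cell Tracker Red CMTPX staining in the red channel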
Conditions: BODIPY lipid droplet fluorescence, 18-24 h; for cell number change: measured here: cell count max response, cells fed with added oleic acid
Method in brief: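 Drosophila S3 cells loaded with oleic acid (400 uM, as added) and compounds at several concentrations; lipid droplets imaged by 488-nm laser-scanning cytometry, 500–530 nm intensity and object ratio to cell channel. Percent activity normalized to 20 uM Triacsin C.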

[1] = measured here: lipid fluorescence (Fed channel) AC50, cells fed with added oleic acid
[2] = measured here: cell number channel AC50, cells fed with added oleic acid

| Compound | cell number change | AC50 [1] | AC50 [2] |
| --- | --- | --- | --- |
| NC1=NC[C@@H](Cc2ccc(O)cc2)N1CCc1cccc2ccccc12 | -5.89% | 6.51 µM [falling, single point] | – |
| C/C=C/C(=O)OCC(=O)Nc1cccc(F)c1 | -20.3% | 1.84 µM [falling, full curve] | – |
| Cc1cc(OC(C)C(=O)N(Cc2ccco2)C2CCS(=O)(=O)C2)ccc1Cl (configuration not stated) | 17.3% | – | 0.00461 µM [rising, full curve, poor fit] |
| Cc1[nH]c(=O)[nH]c(=O)c1S(=O)(=O)N1CCCC(C(=O)NCCc2ccc(Cl)cc2)C1 (configuration not stated) | 7.98% | 0.164 µM [falling, full curve, poor fit] | – |
| Oc1ccccc1C=NC(c1ccccc1)C(O)c1ccccc1 (configuration not stated) | -16.5% | 0.92 µM [falling, full curve, poor fit] | – |
| Cn1c(=O)c2c(nc(CN3CCN(C(=O)c4ccco4)CC3)n2CCCc2ccccc2)n(C)c1=O | 37.6% | 0.517 µM [rising, full curve] | 1.03 µM [rising, partial curve] |
| O=C1OCC2=C1C(c1ccc(F)cc1)c1cc3c(cc1N2)OCCO3 (configuration not stated) | -16.6% | 6.51 µM [rising, single point] | – |
| CCCCn1c(N)c(N(CCC(C)C)C(=O)CC2CCCC2)c(=O)[nH]c1=O | -26.5% | – | – |
| Cc1cc(C)n2nc(C(=O)NCCc3ccccc3)nc2n1 | – | – | 2.59 µM [rising, single point] |
| CCN(CC)S(=O)(=O)c1ccc(N2CCOCC2)c(NS(=O)(=O)c2ccc(OC)cc2)c1 | – | 25.9 µM [falling, single point] | – |
| CCOc1ccc(N(CC(=O)Nc2ccccc2F)S(=O)(=O)c2c(C)[nH]c(=O)[nH]c2=O)cc1 | -56.8% | – | 29.1 µM [falling, single point] |
| O=C(Cn1cc([N+](=O)[O-])cn1)NCCc1nc2ccccc2[nH]1 | -13.4% | – | – |
| Cc1ccc(CC(=O)N2CC(C)OC(C)C2)cc1 (configuration not stated) | 6.37% | 1.64 µM [falling, partial curve] | – |
| O=C(CN1C(=O)COc2ccccc21)NCc1ccccn1 | -23.8% | 29.1 µM [falling, single point] | – |
| C/C=C/c1ccc(OCC(O)CN2CCCCC2CC)c(OC)c1 (configuration not stated) | -22.9% | 29.1 µM [falling, single point] | – |
| CC1(C)Cc2nc3nc(SCC(=O)NCCc4ccccc4)n(-c4ccccc4)c(=O)c3cc2CO1 | -25.8% | – | – |
| Nc1ccc(CCc2nc3ccccc3o2)cc1 | 19.4% | 20.6 µM [rising, single point] | – |
| C=Cc1c(C)c2cc3[nH]c(cc4nc(cc5nc(cc1[nH]2)C(C)=C5CCC(=O)O)C(CCC(=O)O)=C4C)c(C)c3C=C | -19.1% | 29.1 µM [falling, single point] | – |

Full records as entered above.
`O=C(CN1C(=O)COc2ccccc21)NCc1ccccn1` in the list: cell number change: -23.8%; AC50 [1]: 29.1 µM [falling, single point]
`Cc1[nH]c(=O)[nH]c(=O)c1S(=O)(=O)N1CCCC(C(=O)NCCc2ccc(Cl)cc2)C1` (configuration not stated) in the list: cell number change: 7.98%; AC50 [1]: 0.164 µM [falling, full curve, poor fit]
